Results are given in words; binding and its absence hold for the method and conditions named. In cells and extracts the contact can be indirect. Some binding calls cover weakened binding; strength is not graded here. Tags and fused reporters may be left off the sequences shown.
Target: T1, Flag-labelled ANXA1 (UniProt P04083)
T1 sequence: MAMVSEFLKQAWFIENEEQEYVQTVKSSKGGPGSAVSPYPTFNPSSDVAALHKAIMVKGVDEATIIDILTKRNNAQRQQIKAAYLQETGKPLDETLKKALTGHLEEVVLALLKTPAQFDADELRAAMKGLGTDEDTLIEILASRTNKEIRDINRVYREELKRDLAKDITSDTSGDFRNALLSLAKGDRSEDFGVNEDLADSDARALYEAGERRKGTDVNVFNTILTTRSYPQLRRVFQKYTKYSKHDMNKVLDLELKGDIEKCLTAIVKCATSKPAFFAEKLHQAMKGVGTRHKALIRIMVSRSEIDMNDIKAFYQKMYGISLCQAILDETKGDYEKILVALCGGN
Test: co-IP; exogenous co-IP from lysate of HEK293T cells transfected with ANXA1-Flag and/or TNFR1-HA plasmids; precipitated with anti-Flag or anti-HA antibody, Protein A/G PLUS-Agarose; western blot

The chains behind the UniProt entries cited, without tags or fusion partners. Residues count along the entry.
UniProt P19438, residues 30-455: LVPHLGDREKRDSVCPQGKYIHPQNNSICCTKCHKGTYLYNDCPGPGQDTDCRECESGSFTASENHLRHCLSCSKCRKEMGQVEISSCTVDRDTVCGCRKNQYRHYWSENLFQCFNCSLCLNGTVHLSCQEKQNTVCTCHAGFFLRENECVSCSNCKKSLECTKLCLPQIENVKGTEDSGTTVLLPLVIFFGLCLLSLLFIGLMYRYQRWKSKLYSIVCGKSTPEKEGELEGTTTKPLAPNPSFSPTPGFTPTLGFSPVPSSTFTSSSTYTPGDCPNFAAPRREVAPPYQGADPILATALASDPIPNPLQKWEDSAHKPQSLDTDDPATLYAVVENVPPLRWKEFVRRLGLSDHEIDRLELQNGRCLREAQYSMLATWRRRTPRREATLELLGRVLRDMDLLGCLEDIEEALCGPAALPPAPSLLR

binding: binds
Substance: HA-labelled TNFR1 (from UniProt P19438 30-455) (receptor)
